Paper PMC12231567
These are yes or no findings as the source states them, for the method shown. For part of these data: Binding seen in cells or lysates may run through a third protein. Tags and fused reporters may be left off the sequences shown. Each block holds one molecule with its values, some of them ahead of it.

Legend:
[1] = target: T1, αKNL2-C (C-terminal fragment of αKNL2, 364 to 599 aa) fused to the GAL4 DNA-binding domain (Arabidopsis thaliana) (UniProt F4KCE9); assay: two-hybrid; cotransformation of pGBKT7 (BD, bait) and pGADT7 (AD, prey) into S. cerevisiae Y2H Gold; drop dilutions on -LT and -LTH (triple dropout) medium, 30 °C
T1 sequence: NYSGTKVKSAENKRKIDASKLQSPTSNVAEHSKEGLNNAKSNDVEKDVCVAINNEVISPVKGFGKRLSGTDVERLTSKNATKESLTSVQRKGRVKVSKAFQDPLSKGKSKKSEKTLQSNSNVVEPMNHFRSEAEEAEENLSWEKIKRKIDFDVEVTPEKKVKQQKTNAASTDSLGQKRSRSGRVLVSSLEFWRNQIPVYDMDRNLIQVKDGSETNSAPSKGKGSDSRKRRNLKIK

[2] = target: T2, αKNL2-N (N-terminal fragment of αKNL2, 1 to 363 aa) fused to the GAL4 DNA-binding domain (Arabidopsis thaliana) (UniProt F4KCE9); assay: as above
T2 sequence: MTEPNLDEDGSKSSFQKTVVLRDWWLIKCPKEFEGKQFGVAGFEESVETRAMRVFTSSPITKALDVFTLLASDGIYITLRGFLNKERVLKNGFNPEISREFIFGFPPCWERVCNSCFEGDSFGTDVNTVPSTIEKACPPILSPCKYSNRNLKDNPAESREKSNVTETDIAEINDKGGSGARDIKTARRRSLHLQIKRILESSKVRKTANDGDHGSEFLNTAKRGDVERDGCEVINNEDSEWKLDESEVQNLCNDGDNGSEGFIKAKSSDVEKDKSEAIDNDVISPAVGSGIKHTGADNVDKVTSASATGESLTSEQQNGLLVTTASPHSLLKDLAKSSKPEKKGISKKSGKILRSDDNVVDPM

[3] = target: T3, αKNL2 (KINETOCHORE NULL2), full length, fused to the GAL4 DNA-binding domain (Arabidopsis thaliana) (UniProt F4KCE9); assay: as above
T3 sequence: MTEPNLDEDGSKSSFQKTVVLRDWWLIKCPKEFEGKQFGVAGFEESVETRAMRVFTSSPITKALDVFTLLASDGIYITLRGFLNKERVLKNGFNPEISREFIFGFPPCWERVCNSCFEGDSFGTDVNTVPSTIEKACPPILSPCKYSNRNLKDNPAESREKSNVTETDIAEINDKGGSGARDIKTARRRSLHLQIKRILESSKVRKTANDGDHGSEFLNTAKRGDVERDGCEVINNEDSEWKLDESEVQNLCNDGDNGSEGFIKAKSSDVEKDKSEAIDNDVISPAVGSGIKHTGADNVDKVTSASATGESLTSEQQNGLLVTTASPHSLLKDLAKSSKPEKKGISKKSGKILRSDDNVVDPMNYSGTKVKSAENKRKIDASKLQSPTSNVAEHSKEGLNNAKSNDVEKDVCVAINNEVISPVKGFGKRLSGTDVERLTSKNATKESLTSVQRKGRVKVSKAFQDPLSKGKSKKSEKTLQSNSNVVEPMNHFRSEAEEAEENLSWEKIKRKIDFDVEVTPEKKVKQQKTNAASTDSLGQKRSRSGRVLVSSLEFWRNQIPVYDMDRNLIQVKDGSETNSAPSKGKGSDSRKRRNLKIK

[4] = target: CDH1.1 fused to a Venus fragment (BiFC) (Arabidopsis thaliana); assay: split reporter; BiFC in N. benthamiana leaves co-infiltrated with A. tumefaciens GV3101 carrying the VENn and VENc fusions (both directions) and HC-Pro; Venus fluorescence in nuclei; some combinations also scored after MG115

binding [1]: no binding
binding [2]: no binding
binding [3]: no binding
Molecule: CDH1.1 fused to the GAL4 activation domain (Arabidopsis thaliana)

binding [4]: no binding
B1: αKNL2-N (1 to 363 aa) fused to a Venus fragment (BiFC) (domain or fragment, UniProt F4KCE9 1-363)
chain: T2 sequence

binding [4]: no binding
B2: αKNL2, full length, fused to a Venus fragment (BiFC) (protein, UniProt F4KCE9 1-598)
chain: T3 sequence

binding [4]: no binding
B3: αKNL2-C (364 to 599 aa) fused to a Venus fragment and cMYC (BiFC and Co-IP) (domain or fragment, UniProt F4KCE9 364-598)
chain: T1 sequence
